Measured values taken from patent US20200016058A1, “HORNY LAYER FUNCTION IMPROVING AGENT” (Ajinomoto Co., Inc., priority 2017, published 2020).
Some entries repeat one wording, which the source may state once for all of them.

Test system: horny layer of the subjects
Assay: Correlation between D-amino acid content in the horny layer and horny layer moisture content (Skicon-200EX, cheek)
Format: in vivo, women
Conditions: absolute value of correlation coefficient; for Moisture retainability Horny layer moisture content, Elderly person (correlation with D-amino acid content in horny layer): women in their forties to sixties; for Moisture retainability Horny layer moisture content, Young person (correlation with D-amino acid content in horny layer): women in their twenties to thirties

| SMILES | Moisture retainability Horny layer moisture content, Elderly person (correlation with D-amino acid content in horny layer) | Moisture retainability Horny layer moisture content, Young person (correlation with D-amino acid content in horny layer) |
| --- | --- | --- |
| N=C(N)NCCC[C@@H](N)C(=O)O [D-Arg, D-arginine] | C (cases with that of 0.2 or more were evaluated to be “C” as having “a weak correlation.”) | C (cases with that of 0.2 or more were evaluated to be “C” as having “a weak correlation.”) |
| NC(=O)C[C@@H](N)C(=O)O [D-Asn, D-asparagine] | B (cases with that of 0.3 or more were evaluated to be “B” as having “a medium correlation,”) | A (Cases with an absolute value of a correlation coefficient of 0.4 or more were evaluated to be “A” as having “a strong correlation”) |
| N[C@H](CC(=O)O)C(=O)O [D-Asp, D-aspartic acid] | C (cases with that of 0.2 or more were evaluated to be “C” as having “a weak correlation.”) | A (Cases with an absolute value of a correlation coefficient of 0.4 or more were evaluated to be “A” as having “a strong correlation”) |
| NC(=O)CC[C@@H](N)C(=O)O [D-Gln, D-glutamine] | C (cases with that of 0.2 or more were evaluated to be “C” as having “a weak correlation.”) | – |
| N[C@H](Cc1c[nH]cn1)C(=O)O [D-His, D-histidine] | C (cases with that of 0.2 or more were evaluated to be “C” as having “a weak correlation.”) | B (cases with that of 0.3 or more were evaluated to be “B” as having “a medium correlation,”) |
| CC(C)C[C@@H](N)C(=O)O [D-Leu, D-leucine] | C (cases with that of 0.2 or more were evaluated to be “C” as having “a weak correlation.”) | A (Cases with an absolute value of a correlation coefficient of 0.4 or more were evaluated to be “A” as having “a strong correlation”) |
| NCCCC[C@@H](N)C(=O)O [D-Lys, D-lysine] | C (cases with that of 0.2 or more were evaluated to be “C” as having “a weak correlation.”) | B (cases with that of 0.3 or more were evaluated to be “B” as having “a medium correlation,”) |
| N[C@H](Cc1ccccc1)C(=O)O [D-Phe, D-phenylalanine] | – | A (Cases with an absolute value of a correlation coefficient of 0.4 or more were evaluated to be “A” as having “a strong correlation”) |
| O=C(O)[C@H]1CCCN1 [D-Pro, D-proline] | B (cases with that of 0.3 or more were evaluated to be “B” as having “a medium correlation,”) | A (Cases with an absolute value of a correlation coefficient of 0.4 or more were evaluated to be “A” as having “a strong correlation”) |
| N[C@H](CO)C(=O)O [D-Ser, D-serine] | – | A (Cases with an absolute value of a correlation coefficient of 0.4 or more were evaluated to be “A” as having “a strong correlation”) |
| N[C@H](Cc1c[nH]c2ccccc12)C(=O)O [D-Trp, D-tryptophan] | C (cases with that of 0.2 or more were evaluated to be “C” as having “a weak correlation.”) | C (cases with that of 0.2 or more were evaluated to be “C” as having “a weak correlation.”) |
| N[C@H](Cc1ccc(O)cc1)C(=O)O [D-Tyr, D-tyrosine] | – | C (cases with that of 0.2 or more were evaluated to be “C” as having “a weak correlation.”) |
| CC(C)[C@@H](N)C(=O)O [D-Val, D-valine] | A (Cases with an absolute value of a correlation coefficient of 0.4 or more were evaluated to be “A” as having “a strong correlation”) | A (Cases with an absolute value of a correlation coefficient of 0.4 or more were evaluated to be “A” as having “a strong correlation”) |
| CC[C@H](C)[C@@H](N)C(=O)O [D-allo-Ile, D-allo-isoleucine] | A (Cases with an absolute value of a correlation coefficient of 0.4 or more were evaluated to be “A” as having “a strong correlation”) | A (Cases with an absolute value of a correlation coefficient of 0.4 or more were evaluated to be “A” as having “a strong correlation”) |
| C[C@@H](O)[C@@H](N)C(=O)O [D-allo-Thr, D-allo-threonine] | B (cases with that of 0.3 or more were evaluated to be “B” as having “a medium correlation,”) | A (Cases with an absolute value of a correlation coefficient of 0.4 or more were evaluated to be “A” as having “a strong correlation”) |
